These are yes or no findings as the source states them, for the method shown. Binding seen in cells or lysates may run through a third protein. Some binding calls cover weakened binding; strength is not graded here. For part of these data: Sequences can lack the tags named with a protein. Values belong to the binder of their own block, whether it stands above or below them.
Columns and labels:
[1] = target: T1, VANGL2 (human (endogenous in SUM149, SKBR7, PDX)) (UniProt Q9ULK5); assay: co-IP; co-immunoprecipitation from SUM149 cells expressing GFP-p62^DN (Supplementary Fig. 5)
T1 sequence: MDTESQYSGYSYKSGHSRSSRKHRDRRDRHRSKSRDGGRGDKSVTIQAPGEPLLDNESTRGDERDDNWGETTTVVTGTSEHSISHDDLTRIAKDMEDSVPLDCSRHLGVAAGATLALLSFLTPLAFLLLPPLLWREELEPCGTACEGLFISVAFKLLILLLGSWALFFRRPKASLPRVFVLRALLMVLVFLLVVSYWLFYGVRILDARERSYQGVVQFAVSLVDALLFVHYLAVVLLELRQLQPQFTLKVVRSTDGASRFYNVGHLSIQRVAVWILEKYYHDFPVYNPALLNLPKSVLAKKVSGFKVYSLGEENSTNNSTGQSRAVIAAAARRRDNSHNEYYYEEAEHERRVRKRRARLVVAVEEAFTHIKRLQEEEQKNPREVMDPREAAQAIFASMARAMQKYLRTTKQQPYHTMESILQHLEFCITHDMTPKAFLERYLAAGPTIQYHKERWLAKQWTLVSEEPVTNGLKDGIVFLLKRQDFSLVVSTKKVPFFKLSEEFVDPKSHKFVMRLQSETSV

[2] = target: T1, VANGL2 (human (endogenous in SUM149, SKBR7, PDX)); assay: co-IP; SUM149 cell protein extracts incubated with synthetic p62^DN peptide (5 to 100 μM), then immunoprecipitation of VANGL2 and western blot; the peptide against VANGL2 of the extract, read as loss of p62/SQSTM1; only the binder purified
[3] = target: Glutathione S-transferase (GST)–p62/SQSTM1 (UniProt Q13501); assay: pull-down; GST or GST–p62/SQSTM1 as bait; in vitro translated GFP–VANGL2 constructs, autoradiography; only the target purified

binding [1]: binds
Binder: VDPSTGELQSLQMPESEGPSSLDPSQEGPTGLKEAALYPHLPP (domain or fragment) [GFP-p62^DN]

binding [2]: binds
Binder: VDPSTGELQSLQMPESEGPSSLDPSQEGPTGLKEAALYPHLPP [p62/SQSTM1 peptide p62^346-388]

binding [3]: binds
B1: GFP–VANGL2 C-terminal 242–521 (CT), in vitro translated (domain or fragment, UniProt Q9ULK5 242-521)
chain: LQPQFTLKVVRSTDGASRFYNVGHLSIQRVAVWILEKYYHDFPVYNPALLNLPKSVLAKKVSGFKVYSLGEENSTNNSTGQSRAVIAAAARRRDNSHNEYYYEEAEHERRVRKRRARLVVAVEEAFTHIKRLQEEEQKNPREVMDPREAAQAIFASMARAMQKYLRTTKQQPYHTMESILQHLEFCITHDMTPKAFLERYLAAGPTIQYHKERWLAKQWTLVSEEPVTNGLKDGIVFLLKRQDFSLVVSTKKVPFFKLSEEFVDPKSHKFVMRLQSETSV

From publication PMC4729931
